Results deposited as PubChem BioAssay AID1259405 (NCATS, 2018).
Screen: 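Mouse-designed siRNAs used to find CHO productivity engineering targets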 (primary screen). Cells: Chinese hamster CHO-K1 ovary cells with stable secreted eGFP expression. Reagent: single siRNA against mouse genes, 0.8 pmol siRNA per well (2 µl of 400 nM stock). Time to read-out: 3 days. Read-out: 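Per-well intracellular GFP measured by laser scanning cytometry, plus viability from ATP luminescence, each relative to plate median of non-targeting control wells, in %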. Scale: GFP, % of control: higher = more GFP per well, higher productivity; viability (ATP), % of control: higher = more viable cells (more ATP). Active means: 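a knock-down is called active if GFP reaches 120% or more of non-targeting control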.
Shown is one part, drawn at random, of about 50,000 deposited reagents. Over the whole deposit, about 4,000 (8%) got an active call. 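Mouse siRNA library applied to hamster cells; one well for each siRNA.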 A number with no mark means an inactive call. Reagents against one gene are numbered here.

The opening 4 records as a preview:
| gene symbol | reagent no. | GFP, % of control | viability (ATP), % of control |
| --- | --- | --- | --- |
| Wdr86 | 1 | 70.2 | 64.2 |
| Wdr86 | 2 | 88.7 | 79 |
| Wdr86 | 3 | 52.5 | 37.4 |
| Ptprh | 1 | 176 (active) | 120 |

The listing, from the start:
| gene symbol | reagent no. | GFP, % of control | viability (ATP), % of control |
| --- | --- | --- | --- |
| Wdr86 | 1 | 70.2 | 64.2 |
| Wdr86 | 2 | 88.7 | 79 |
| Wdr86 | 3 | 52.5 | 37.4 |
| Ptprh | 1 | 176 (active) | 120 |
| Ptprh | 2 | 75.1 | 62.1 |
| Ptprh | 3 | 95.4 | 119 |
| Syngr3 | 1 | 80 | 75.3 |
| Syngr3 | 2 | 80.9 | 78 |
| Syngr3 | 3 | 89.2 | 57.1 |
| Krt88 | 1 | 37.7 | 16.3 |
| Krt88 | 2 | 91.3 | 92.3 |
| Krt88 | 3 | 74.6 | 57.3 |
| Or4f57 | 1 | 161 (active) | 118 |
| Or4f57 | 2 | 43.1 | 67.1 |
| Or4f57 | 3 | 90.7 | 121 |
| Or4f57 | 4 | 114 | 91.1 |
| Or4f57 | 5 | 60.4 | 103 |
| Or4f57 | 6 | 100 | 84.2 |
| Zfp687 | 1 | 71.8 | 90.1 |
| Zfp687 | 2 | 112 | 85 |
| Foxg1 | 1 | 59.6 | 82.7 |
| Foxg1 | 2 | 80.7 | 82.9 |
| Mro | 1 | 85.5 | 83.8 |
| Mro | 2 | 133 (active) | 101 |
| Mro | 3 | 87.6 | 50.6 |
| Mdfi | 1 | 68.6 | 67.4 |
| Mdfi | 2 | 67.9 | 77.7 |
| Mdfi | 3 | 62.1 | 66.7 |
| Mypop | 1 | 96.8 | 81.5 |
| Mypop | 2 | 31.8 | 51 |
| Mypop | 3 | 71.3 | 106 |
| Sec14l4 | 1 | 79.2 | 89.5 |
| Sec14l4 | 2 | 88.8 | 92.9 |
| Sec14l4 | 3 | 109 | 78.7 |
